Measured values taken from paper PMC6715681, “A high-throughput screen to identify novel synthetic lethal compounds for the treatment of E-cadherin-deficient cells” (Scientific Reports, 2019).

System: MCF10A WT and MCF10A CDH1^−/− cells
Assay: Weighted and ranked score (WRS) for hit prioritisation from six screen variables
Design: species or system human
Details: for Sum of Weighted Variables: WRS; for Sum of Weighted Variables / WRS (weighted ranked score): score 0–1; for Sum of Weighted Variables / Final Rank: Supplementary Table 2; for WRS (weighted ranked score): calculated from six variables; for Final Rank: rank by WRS among the 256 hits; for WRS rank: rank in parenthesis, among the 256 hits
Description: To prioritise hits, a weighted and ranked score (WRS) was created for each compound. Rather than using solely an EC50 from each cell line or an extensive list of multi-parametric data from the four-staged screen, six key variables were chosen. Each variable was given a different weighting based on their predicted importance. The sum of the weighted and scored variables produced the WRS to summarise the multi-parametric data of each compound into a single number (Fig. 6). The WRS is a unique tool for hit-selection and was used in combination with a comprehensive assessment of the biological activity of each compound including non-quantifiable traits, i.e. chemical desirability of the scaffold and risks associated with structural features or synthetic accessibility to determine the final lead compounds from the four-staged screen.
Figure 6 The weighted and ranked score. Only the 256 hits entering the 11-point dose-response screens were considered. Compounds were scored using the formula: variable / max(variable) to give a score from 0–1, with 1 being the ideal score. All data was averaged between the three or two biological replicates, for single-point and 11- screens, respectively. (A) Percentage weighting of each variable. (B) Distribution of the sum of weighted and ranked variables.
Since the single point screen was assayed at only one concentration, these two variables were given a combined weighting of 20%.
As well as this, the differential at 20 μM (10% weighting), and the viability of the MCF10A WT cells at the highest concentration of 20 μM (15% weighting) were also included.

| Compound | Sum of Weighted Variables | WRS (weighted ranked score) | Final Rank | WRS rank |
| --- | --- | --- | --- | --- |
| COc1ccc2nc(C)cc(NCC(=O)Nc3cccc(C)c3C)c2c1 [SLEC-12] | 0.71 | 0.708 | 8 | 8 |
| CCOc1ccc2nc(C)cc(SCC(O)C(=O)O)c2c1 (stereo not shown) [SLEC-20] | 0.73 | 0.734 | 6 | 6 |
| COc1ccc2nccc(Nc3cccc(C(C)=O)c3)c2c1 [SLEC-2] | 0.76 | 0.755 | 4 | 4 |
| COc1ccc2nc(C)cc(NCc3ccc(F)cc3)c2c1 [SLEC-11, N-(4-Fluorobenzyl)-6-methoxy-2-methylquinolin-4-amine] | 0.79 | 0.792 | 2 | 2 |

Some values come without a unit; they compare only within their column.
